Results deposited as PubChem BioAssay AID1508597 (Cure First, 2020).
Aim: 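Survival screen with siRNA in ovarian cancer cells derived from patients, with or without rucaparib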 (primary screen). System: human ovarian carcinoma lines grown from tumours: OCI-P5x (papillary serous) and OCI-C5x (clear cell). Reagents: siRNA pool against human genes, 1.25 pmol siRNA per well. Timing: 72 h or 96 h, depending on the cell culture. Conditions: rucaparib 20 µM (about IC30) or vehicle, present until read-out. Rucaparib or vehicle: Rucaparib. Cell line: OCI-P5x (serous). Measured: 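ATP luminescence measured at 72 or 96 h according to the culture, then normalised and expressed as percent viability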. Reading the numbers: viability, normalised: higher = more viable cells remaining. Active means: 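Active when normalised viability falls below 80 percent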. Calls: active = viability under 80%; inactive = viability 80% or more.
Shown is an unselected part of the about 2,100 reagents, in one setting of the screen. 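Calls flag viability under 80% in either arm, not effects specific to rucaparib; the reference for percent is not stated.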 The record does not give: the 100% reference.

What did the screen give for ULK3 (unc-51 like kinase 3), technical replicate 1?
viability, normalised (%): 76.6; Outcome: active

For ULK3 (unc-51 like kinase 3), technical replicate 2, how do the results read?
viability, normalised (%): 57.8; Outcome: active

What did the screen give for ULK3 (unc-51 like kinase 3), technical replicate 3?
viability, normalised (%): 67.4; Outcome: active

For CAMKK2 (calcium/calmodulin dependent protein kinase kinase 2), technical replicate 1, what was measured?
viability, normalised (%): 82.7; Outcome: inactive

Which result is listed for CAMKK2 (calcium/calmodulin dependent protein kinase kinase 2), technical replicate 2?
viability, normalised (%): 74.1; Outcome: active

What is on record for CAMKK2 (calcium/calmodulin dependent protein kinase kinase 2), technical replicate 3?
viability, normalised (%): 88.9; Outcome: inactive

With PLCH2 (phospholipase C eta 2), technical replicate 1, what was measured?
viability, normalised (%): 69.1; Outcome: active

What did the screen give for PLCH2 (phospholipase C eta 2), technical replicate 2?
viability, normalised (%): 59.2; Outcome: active

How did the screen score PLCH2 (phospholipase C eta 2), technical replicate 3?
viability, normalised (%): 71.5; Outcome: active

Which result is listed for PASK (PAS domain containing serine/threonine kinase), technical replicate 1?
viability, normalised (%): 43.8; Outcome: active

For PASK (PAS domain containing serine/threonine kinase), technical replicate 2, what was measured?
viability, normalised (%): 42.9; Outcome: active

What is on record for PASK (PAS domain containing serine/threonine kinase), technical replicate 3?
viability, normalised (%): 52.4; Outcome: active

With ZKSCAN2 (zinc finger with KRAB and SCAN domains 2), technical replicate 1, what does the deposit list?
viability, normalised (%): 75.2; Outcome: active

How did the screen score ZKSCAN2 (zinc finger with KRAB and SCAN domains 2), technical replicate 2?
viability, normalised (%): 69.6; Outcome: active

What is on record for ZKSCAN2 (zinc finger with KRAB and SCAN domains 2), technical replicate 3?
viability, normalised (%): 70.6; Outcome: active

How did the screen score TERF2IP (TERF2 interacting protein), technical replicate 1?
viability, normalised (%): 63.1; Outcome: active

What is on record for TERF2IP (TERF2 interacting protein), technical replicate 2?
viability, normalised (%): 61.9; Outcome: active

What did the screen give for TERF2IP (TERF2 interacting protein), technical replicate 3?
viability, normalised (%): 61; Outcome: active

Records above whose target name starts with T or t (3):
TERF2IP (TERF2 interacting protein), technical replicate 1 — viability, normalised (%) = 63.1; Outcome = active
TERF2IP (TERF2 interacting protein), technical replicate 2 — viability, normalised (%) = 61.9; Outcome = active
TERF2IP (TERF2 interacting protein), technical replicate 3 — viability, normalised (%) = 61; Outcome = active

The listing continues.
With DDX47 (DEAD-box helicase 47), technical replicate 1, what does the deposit list?
viability, normalised (%): 57.8; Outcome: active

For DDX47 (DEAD-box helicase 47), technical replicate 2, what does the deposit list?
viability, normalised (%): 62.4; Outcome: active

For DDX47 (DEAD-box helicase 47), technical replicate 3, what does the deposit list?
viability, normalised (%): 71.4; Outcome: active

For ENPP2 (ectonucleotide pyrophosphatase/phosphodiesterase 2), technical replicate 1, how do the results read?
viability, normalised (%): 56.7; Outcome: active

For ENPP2 (ectonucleotide pyrophosphatase/phosphodiesterase 2), technical replicate 2, what does the deposit list?
viability, normalised (%): 62.9; Outcome: active

What did the screen give for ENPP2 (ectonucleotide pyrophosphatase/phosphodiesterase 2), technical replicate 3?
viability, normalised (%): 69.3; Outcome: active

For TAF12 (TATA-box binding protein associated factor 12), technical replicate 1, how do the results read?
viability, normalised (%): 51.9; Outcome: active

How did the screen score TAF12 (TATA-box binding protein associated factor 12), technical replicate 2?
viability, normalised (%): 43.3; Outcome: active

With TAF12 (TATA-box binding protein associated factor 12), technical replicate 3, what was measured?
viability, normalised (%): 40.6; Outcome: active

For RPL5 (ribosomal protein L5), technical replicate 1, what was measured?
viability, normalised (%): 74.8; Outcome: active

For RPL5 (ribosomal protein L5), technical replicate 2, what was measured?
viability, normalised (%): 73.4; Outcome: active

For RPL5 (ribosomal protein L5), technical replicate 3, how do the results read?
viability, normalised (%): 63.4; Outcome: active

What did the screen give for DROSHA (drosha ribonuclease III), technical replicate 1?
viability, normalised (%): 62.5; Outcome: active

How did the screen score DROSHA (drosha ribonuclease III), technical replicate 2?
viability, normalised (%): 65.1; Outcome: active

What did the screen give for DROSHA (drosha ribonuclease III), technical replicate 3?
viability, normalised (%): 65.3; Outcome: active
